Our source for the binding values is paper doi:10.1101/2019.12.12.874503.

Sequences of proteins named here, by UniProt entry; tags and fusion partners are left off.
UniProt P17746: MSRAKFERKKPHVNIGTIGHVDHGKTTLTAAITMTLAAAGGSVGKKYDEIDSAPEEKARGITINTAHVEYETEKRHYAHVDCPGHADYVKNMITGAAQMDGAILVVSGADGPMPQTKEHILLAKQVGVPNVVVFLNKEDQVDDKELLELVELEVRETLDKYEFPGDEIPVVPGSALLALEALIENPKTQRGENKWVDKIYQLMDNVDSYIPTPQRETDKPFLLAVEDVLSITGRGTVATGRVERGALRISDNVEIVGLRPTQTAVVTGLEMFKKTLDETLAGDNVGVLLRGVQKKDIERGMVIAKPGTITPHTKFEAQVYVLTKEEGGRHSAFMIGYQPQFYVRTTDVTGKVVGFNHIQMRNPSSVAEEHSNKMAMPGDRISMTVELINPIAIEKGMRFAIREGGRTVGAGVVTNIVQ

Results are given in words; binding and its absence hold for the method and conditions named. Binding seen in cells or lysates may run through a third protein. These calls come from enrichment with a bait or labelling near it, and not all partners need be listed. No binding means not detected with the bait. Tags and fused reporters may be left off the sequences shown.

The assay deals with T1, uL5c-HA (chloroplast-encoded ribosomal protein Rpl5 with C-terminal triple-HA tag) (Chlamydomonas reinhardtii) (UniProt Q8HTL1).
T1 sequence: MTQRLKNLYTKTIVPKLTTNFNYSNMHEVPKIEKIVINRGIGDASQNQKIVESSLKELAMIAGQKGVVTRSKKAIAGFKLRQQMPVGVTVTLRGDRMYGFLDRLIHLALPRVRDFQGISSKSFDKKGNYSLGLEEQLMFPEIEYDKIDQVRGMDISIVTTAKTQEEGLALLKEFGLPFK
Kind of assay: affinity purification with mass spectrometry.
With ALB3.1, the binding entry is “no binding”.

Turning to ALB3.2, the binding entry is given as “binds”.

Consider CCB4, for which the binding entry is on record as “binds”.

In the case of CGL27 (enzyme), the binding result was “binds”.

For CGL59/Y3IP1, the binding result was “binds”.

For the substance CGL71/PYG7, the binding result is on record as “binds”.

On to CGLD11, for which the binding result is “binds”.

In the case of CGLD22, the binding entry is “binds”.

Consider CPLD28/LPA3, for which the binding entry is “binds”.

Cre01.g006150: the binding result is on record as “binds”.

As to Cre01.g033832, the binding entry was “binds”.

As to Cre02.g145000, the binding entry is “binds”.

With Cre06.g278264, the binding entry is on record as “binds”.

For Cre07.g335400, the binding entry is given as “binds”.

As for “DLA2 (subunit of the chloroplast pyruvate dehydrogenase complex) (enzyme)”, the binding entry is listed as “binds”.

As for EF-Tu (from UniProt P17746 1-418), the binding entry is “binds”.

In the case of EFG, the binding result is “binds”.

As to EFP, the binding result is “binds”.

In the case of Get3b, the binding result is “binds”.

Turning to HFLX, the binding result is recorded as “binds”.

Consider HSP90C, for which the binding result is listed as “binds”.

On to IF1, for which the binding entry is listed as “binds”.

For the substance IF2, the binding result is listed as “binds”.

With IF3, the binding result is on record as “binds”.

On to LEPA, for which the binding result is “binds”.

For the substance LPA1, the binding result is “binds”.

Turning to MAP1D (MAP-related protein) (enzyme), the binding entry is “binds”.

For NCC1, the binding entry is recorded as “binds”.

In the case of NCC2, the binding entry is reported as “binds”.

Take NTRC (enzyme): the binding entry is on record as “binds”.

Turning to PAM68, the binding result is reported as “binds”.

Consider “PDF1B (chloroplast variant of peptidyl deformylase) (enzyme)”, for which the binding entry is recorded as “binds”.

Take PNP1 (enzyme): the binding result is listed as “binds”.

For PSRP1, the binding result is “binds”.

In the case of PSRP3, the binding entry was “no binding”.

For the substance PSRP4, the binding entry is given as “no binding”.

PUS1 (enzyme): the binding result is “binds”.

With PUS3 (enzyme), the binding entry is reported as “binds”.

Regarding PUS8 (enzyme), the binding result is recorded as “binds”.

PUS9 (enzyme): the binding result is reported as “binds”.

On to PUS19 (enzyme), for which the binding entry was “binds”.

For RNAseJ (enzyme), the binding result is on record as “binds”.

For the substance SECA1, the binding result was “binds”.

In the case of STIC2, the binding result is given as “binds”.

As to TEF30, the binding entry is “binds”.

Take TMU3 (enzyme): the binding result is given as “binds”.

With co-chaperone CDJ1, the binding entry is listed as “binds”.

On to cpEFT, for which the binding entry is reported as “binds”.

In the case of cpFTSY, the binding entry is “binds”.

For the substance “cpNAT1 (Cre14.g614750), endogenous (enzyme)”, the binding entry is given as “binds”.

For the substance cpSECY1, the binding result is reported as “binds”.

Consider cpSRP54, for which the binding entry is on record as “binds”.

As for “peptidyl-tRNA hydrolase (Cre02.g076600) (enzyme)”, the binding entry is on record as “binds”.

As for peroxiredoxin PRX1 (enzyme), the binding entry is recorded as “binds”.

For plastid release factor 1 (PRF1), the binding result is given as “binds”.

For prolyl hydroxylase PFH11 (enzyme), the binding result is on record as “binds”.

As for prolyl hydroxylase PFH17 (enzyme), the binding result is reported as “binds”.

As for prolyl hydroxylase PHX23 (enzyme), the binding entry is reported as “binds”.

thioredoxin of the F-type: the binding entry is recorded as “binds”.

In the case of thioredoxin of the X-type, the binding result was “binds”.

Take thioredoxin of the Y-type: the binding entry is “binds”.

As to trigger factor (TIG1), the binding entry is “binds”.
